Experimental data published in paper PMC11494503 (ACS Chemical Biology, 2024).

Key:
[1] = general procedure: Fmoc solid-phase peptide synthesis; 2-Chlorotrityl chloride (2-CTC) resin, first amino acid loaded in-house; HATU/DIPEA (cyclisation); conditions: for final HPLC purity: 220 nm; for isolated mass / isolated yield: scale 0.1 mmol
[2] = general procedure: Fmoc solid-phase peptide synthesis; 2-Chlorotrityl chloride resin; HATU/DIPEA (cyclisation); conditions: whole synthesis, scale 0.1 mmol
[3] = whole synthesis, scale of the general procedure 0.1 mmol

Substance | final HPLC purity [1, 3] | isolated mass ([1]; whole synthesis) [mg] | isolated yield ([1]; whole synthesis) [%] | further results
C(Spy)GRKKRRQRRRPPQ | – | – | – | step yield ([1]; late stage modification step): 45%
PEPTIDE1{C.L.L.F.C.L}$PEPTIDE1,PEPTIDE1,1:R1-6:R2$$$V2.0 | 97% Purity | 31 | 45 | –
PEPTIDE1{C.R.L.I.I.V}$PEPTIDE1,PEPTIDE1,6:R2-1:R1$$$V2.0 | 94.3% purity | 23 | 33 | –
PEPTIDE1{C.R.L.L.I.L}$PEPTIDE1,PEPTIDE1,6:R2-1:R1$$$V2.0 | 93.9% purity | 21 | 31 | –
PEPTIDE1{C.R.M.F.I.L}$PEPTIDE1,PEPTIDE1,6:R2-1:R1$$$V2.0 | 93% purity | 6.7 | 9 | –
PEPTIDE1{C.R.M.Y.V.L}$PEPTIDE1,PEPTIDE1,6:R2-1:R1$$$V2.0 | 96% Purity | 15 | 20 | –
PEPTIDE1{C.R.R.I.I.L}$PEPTIDE1,PEPTIDE1,6:R2-1:R1$$$V2.0 | 100% purity | 8 | 11 | –
PEPTIDE1{C.R.V.L.V.L}$PEPTIDE1,PEPTIDE1,6:R2-1:R1$$$V2.0 | 95.8% purity | 20 | 29 | –
PEPTIDE1{C.R.Y.L.I.L}$PEPTIDE1,PEPTIDE1,6:R2-1:R1$$$V2.0 | 98% Purity | 31 | 41 | –
PEPTIDE1{C.R.Y.Y.V.L}$PEPTIDE1,PEPTIDE1,6:R2-1:R1$$$V2.0 | 77.2% Purity | 4 | 5 | –
PEPTIDE1{C.V.M.R.I.A}$PEPTIDE1,PEPTIDE1,6:R2-1:R1$$$V2.0 | 99.5% purity | 8 | 12 | –
cyclo-C(TAT)LLFVY | – | – | – | final HPLC purity ([1]; conjugation step): 94.7% Purity; conjugation yield ([1]; conjugation step, on cyclo-CLLFVY): 35%
cyclo-C(TAT)RILIL | – | – | – | final HPLC purity ([1]; conjugation step): 95.8% Purity; conjugation yield ([1]; conjugation step, on cyclo-CRILIL): 64%
cyclo-C(TAT)RLLIL | – | – | – | final HPLC purity ([1]; conjugation step): 100% Purity; conjugation yield ([1]; conjugation step, on cyclo-CRLLIL): 71%
cyclo-C(TAT)RMFIL | – | – | – | final HPLC purity ([1]; conjugation step): 97.5% Purity; conjugation yield ([1]; conjugation step, on cyclo-CRMFIL): 58%
cyclo-C(TAT)RRIIL | – | – | – | final HPLC purity ([1]; conjugation step): 89.8% Purity; conjugation yield ([1]; conjugation step, on cyclo-CRRIIL): 62%
cyclo-C(TAT)RTYIL | – | – | – | final HPLC purity ([1]; conjugation step): 88% Purity; conjugation yield ([1]; conjugation step, on cyclo-CRTYIL): 71%
cyclo-C(TAT)RYLIL | – | – | – | final HPLC purity ([1]; conjugation step): 99% Purity; conjugation yield ([1]; conjugation step, on cyclo-CRYLIL): 74%
cyclo-CFLLNL | 99.9% Purity | 5 | 7 | –
cyclo-CKVFLL | 94% Purity | 21 | 30 | –
cyclo-CRIFIM | 94% Purity | 17 | 22 | –
cyclo-CRILIL | 100% Purity | 15 | 21 | –
cyclo-CRLYIV | 81.7% purity | 7 | 9 | –
cyclo-CRLYVL | 97.5% Purity | 20 | 27 | –
cyclo-CRTIVL | 72.2% purity | 3 | 4 | –
cyclo-CRTYIL | 98.9% Purity | – | 16 | isolated mass [2]: 12 mg
cyclo-CRVYIL | 84.3% purity | 10 | 13 | –
cyclo-CSVWLY | 81% Purity | 10 | 13 | –

For part of these data: Some peptides are written in HELM: one residue between dots, names in brackets for other building blocks, links after the first $.
